Laboratory results as given in PubChem BioAssay AID540275 (National Center for Advancing Translational Sciences (NCATS), 2011).
The campaign covered roughly 320,000 compounds. About 620 (0.19%) were called active. The source calls these results inconclusive, neither active nor inactive. No stated cut-off is given here; in the data, active means activation above about 80%; inconclusive means between about 30% and that limit; inactive means weaker than that.

Sequences of proteins named here, by UniProt entry; tags and fusion partners are left off.
UniProt Q8NER1, whole entry: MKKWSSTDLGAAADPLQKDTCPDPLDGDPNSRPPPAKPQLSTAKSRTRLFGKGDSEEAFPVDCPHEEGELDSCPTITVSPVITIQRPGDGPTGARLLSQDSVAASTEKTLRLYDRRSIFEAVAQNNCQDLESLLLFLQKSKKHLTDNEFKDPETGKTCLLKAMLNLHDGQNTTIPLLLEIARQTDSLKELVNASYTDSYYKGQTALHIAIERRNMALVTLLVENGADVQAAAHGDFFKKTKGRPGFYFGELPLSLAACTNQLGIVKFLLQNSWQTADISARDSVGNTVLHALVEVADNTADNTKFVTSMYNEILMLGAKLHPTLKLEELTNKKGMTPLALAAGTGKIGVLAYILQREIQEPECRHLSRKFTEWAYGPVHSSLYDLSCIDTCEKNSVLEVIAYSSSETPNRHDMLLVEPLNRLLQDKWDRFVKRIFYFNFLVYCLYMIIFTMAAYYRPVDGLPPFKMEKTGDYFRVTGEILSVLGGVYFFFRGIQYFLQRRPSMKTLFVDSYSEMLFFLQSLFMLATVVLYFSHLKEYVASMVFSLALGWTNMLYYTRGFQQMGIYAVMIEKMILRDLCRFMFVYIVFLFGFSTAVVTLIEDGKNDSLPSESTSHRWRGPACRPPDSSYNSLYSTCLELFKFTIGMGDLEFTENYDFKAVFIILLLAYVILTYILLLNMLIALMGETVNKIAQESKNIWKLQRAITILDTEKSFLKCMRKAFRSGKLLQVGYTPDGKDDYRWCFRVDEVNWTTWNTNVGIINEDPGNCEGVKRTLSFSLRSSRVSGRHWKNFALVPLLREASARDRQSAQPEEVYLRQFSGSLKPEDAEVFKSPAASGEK

These compounds were tested against Transient receptor potential cation channel subfamily V member 1 (Homo sapiens) (UniProt Q8NER1) (assay: HTS Assay for Compounds that Act as Agonists of the Vanilloid Receptor 1). Details: TRPV1-expressing cells, Fluo-8 calcium influx, agonist mode.
Source text: The transient receptor potential ion channel, family V, number 1, (TRPV1) is one of the most important molecular transducers of painful stimuli and a potential target for analgesic drug development. Although recent clinical trials with orthosteric antagonists have not produced a successful drug because of a hyperthermia side effect and their tendency to block thermal noxious pain, this ion channel is undeniably well placed in the pain pathway, and the idea of blocking pain signals before they enter the CNS is an excellent concept and of proven efficacy when TRPV1 agonists are used. We propose a new approach involving allosteric modulation to impose an activity-dependent constraint within the context of inflammation and tissue damage that would alter the responsiveness of the channel in a way that an orthosteric vanilloid antagonist cannot achieve. We believe that the allosteric modulator approach has not been explored for this target. The main goal of this proposal is to identify additional, new, potent allosteric modulators of TRPV1 that can be used to investigate TRPV1 function. Our recent report provides evidence of proof of concept, but the compounds are just at the edge of utility in terms of potency. […]
Upon TRPV1 activation in TRPV1 cells, the channel opens and extracellular cations flow through the channel into the cytosol. […] The amount of accumulated calcium is precisely quantified using the FDSS kinetic reader and the calcium dye. […] Plates will be loaded into the FDSS kinetic reader and a 1 sec / cycle for 10 second baseline signal will be measured. Compound library will then be added with a pintool at 23 nl and measured kinetically for 3 minutes. This portion of the read is considered the agonist portion of the screen. […] Signal will be measured kinetically for an additional 2 minutes. This portion of the read is considered the allosteric enhancer portion of the screen. The FDSS reader has a standard filter set capable of measuring calcium bound Fluo-8 (ex=480 and em=520 nm).

Q: For `CCc1ccc(OP(C)(=O)N2CCN(c3ccc([N+](=O)[O-])cc3)CC2)cc1` (stereo not drawn), which outcome is on record?
A: Its outcome is “inconclusive”.

Q: How did the outcome turn out when `CP(=O)(Oc1ccccc1)OC(c1ccccc1)C(F)(F)F` (stereo not drawn) was run?
A: Its outcome is “inconclusive”.

Q: With `CP(=O)(OC12CC3CC(CC(C3)C1)C2)OC12CC3CC(CC(C3)C1)C2` as the compound, how does the outcome read?
A: Its outcome is “inconclusive”.
